A short description of the data set: LC-MS serine phosphorylation of capsid variants. Conditions: across the capsid variant.

B1: TTM-019: AAV9 capsid variant, full length capsid sequence of Table 4 (protein)
chain: MAADGYLPDWLEDNLSEGIREWWALKPGAPQPKANQQHQDNARGLVLPGYKYLGPGNGLDKGEPVNAADAAALEHDKAYDQQLKAGDNPYLKYNHADAEFQERLKEDTSFGGNLGRAVFQAKKRLLEPLGLVEEAAKTAPGKKRPVEQSPQEPDSSAGIGKSGAQPAKKRLNFGQTGDTESVPDPQPIGEPPAAPSGVGSLTMASGGGAPVADNNEGADGVGSSSGNWHCDSQWLGDRVITTSTRTWALPTYNNHLYKQISNSTSGGSSNDNAYFGYSTPWGYFDFNRFHCHFSPRDWQRLINNNWGFRPKRLNFKLFNIQVKEVTDNNGVKTIANNLTSTVQVFTDSDYQLPYVLGSAHEGCLPPFPADVFMIPQYGYLTLNDGSQAVGRSSFYCLEYFPSQMLRTGNNFQFSYEFENVPFHSSYAHSQSLDRLMNPLIDQYLYYLSKTVNGHDSPHSKAQNQQTLKFSVAGPSNMAVQGRNYIPGPSYRQQRVSTTVTQNNNSEFAWPGASSWALNGRNSLMNPGPAMASHKEGEDRFFPLSGSLIFGKQGTGRDNVDADKVMITNEEEIKTTNPVATESYGQVATNHQSAQAQAQTGWVQNQGILPGMVWQDRDVYLQGPIWAKIPHTDGNFHPSPLMGGFGMKHPPPQILIKNTPVPADPPTAFNKDKLNSFITQYSTGQVSVEIEWELQKENSKRWNPEIQYTSNYYKSNNVEFAVNTEGVYSEPRPIGTRYLTRNL
Turning to B1, the overall serine phosphorylation is on record as 4.7%.

B2: TTM-018: AAV9 capsid variant, full length capsid sequence of Table 4 (protein)
chain: MAADGYLPDWLEDNLSEGIREWWALKPGAPQPKANQQHQDNARGLVLPGYKYLGPGNGLDKGEPVNAADAAALEHDKAYDQQLKAGDNPYLKYNHADAEFQERLKEDTSFGGNLGRAVFQAKKRLLEPLGLVEEAAKTAPGKKRPVEQSPQEPDSSAGIGKSGAQPAKKRLNFGQTGDTESVPDPQPIGEPPAAPSGVGSLTMASGGGAPVADNNEGADGVGSSSGNWHCDSQWLGDRVITTSTRTWALPTYNNHLYKQISNSTSGGSSNDNAYFGYSTPWGYFDFNRFHCHFSPRDWQRLINNNWGFRPKRLNFKLFNIQVKEVTDNNGVKTIANNLTSTVQVFTDSDYQLPYVLGSAHEGCLPPFPADVFMIPQYGYLTLNDGSQAVGRSSFYCLEYFPSQMLRTGNNFQFSYEFENVPFHSSYAHSQSLDRLMNPLIDQYLYYLSKTINGHDSPHSKAQNLQTLKFSVAGPSNMAVQGRNYIPGPSYRQQRVSTTVTQNNNSEFAWPGASSWALNGRNSLMNPGPAMASHKEGEDRFFPLSGSLIFGKQGTGRDNVDADKVMITNEEEIKTTNPVATESYGQVATNHQSAQAQAQTGWVQNQGILPGMVWQDRDVYLQGPIWAKIPHTDGNFHPSPLMGGFGMKHPPPQILIKNTPVPADPPTAFNKDKLNSFITQYSTGQVSVEIEWELQKENSKRWNPEIQYTSNYYKSNNVEFAVNTEGVYSEPRPIGTRYLTRNL
Molecule B2 came in with an overall serine phosphorylation of 1.9%.

For the origin of these results see US20260250318A1, “COMPOSITIONS AND METHODS FOR CROSSING THE BLOOD BRAIN BARRIER” (VOYAGER THERAPEUTICS, INC., priority 2022, published 2026).
